doi:10.1101/815282
No constants are given. Whether binding was seen depends on the method and setting. In cells and extracts the contact can be indirect. Some binding calls cover weakened binding; strength is not graded here. For some assays here: Tags and fused reporters may be left off the sequences shown.

Amino acid sequences for entries named in this document (tags omitted). Residues count along the entry.
UniProt D0NMF6, residues 21-241: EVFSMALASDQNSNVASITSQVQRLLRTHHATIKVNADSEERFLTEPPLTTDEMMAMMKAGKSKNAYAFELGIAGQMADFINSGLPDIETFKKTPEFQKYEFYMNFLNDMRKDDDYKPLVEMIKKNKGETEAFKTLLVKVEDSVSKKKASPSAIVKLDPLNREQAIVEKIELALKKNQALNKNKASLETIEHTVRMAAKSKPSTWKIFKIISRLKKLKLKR

T1: BIR2 (BiFC fusion) (Arabidopsis thaliana) (UniProt Q9LSI9)
T1 sequence: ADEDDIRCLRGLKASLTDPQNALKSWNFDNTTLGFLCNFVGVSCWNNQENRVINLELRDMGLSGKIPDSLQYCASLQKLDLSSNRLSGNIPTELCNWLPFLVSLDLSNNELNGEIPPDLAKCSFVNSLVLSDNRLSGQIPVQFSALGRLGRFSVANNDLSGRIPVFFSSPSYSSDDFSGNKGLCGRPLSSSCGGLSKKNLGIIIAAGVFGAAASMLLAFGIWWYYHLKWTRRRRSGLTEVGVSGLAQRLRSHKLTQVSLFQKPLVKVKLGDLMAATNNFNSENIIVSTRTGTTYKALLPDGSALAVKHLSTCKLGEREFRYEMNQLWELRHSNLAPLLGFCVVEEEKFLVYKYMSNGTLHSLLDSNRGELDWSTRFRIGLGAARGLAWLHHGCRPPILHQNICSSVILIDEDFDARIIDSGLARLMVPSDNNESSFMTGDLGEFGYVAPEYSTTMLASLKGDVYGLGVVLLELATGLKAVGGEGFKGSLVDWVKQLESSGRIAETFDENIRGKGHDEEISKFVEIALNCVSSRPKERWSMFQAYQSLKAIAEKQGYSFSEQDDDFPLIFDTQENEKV

B1: PLDγ1 (BiFC fusion) (enzyme, UniProt Q9T053 1-858)
chain: MAYHPAYTETMSMGGGSSHGGGQQYVPFATSSGSLRVELLHGNLDIWVKEAKHLPNMDGFHNRLGGMLSGLGRKKVEGEKSSKITSDPYVTVSISGAVIGRTFVISNSENPVWMQHFDVPVAHSAAEVHFVVKDSDIIGSQIMGAVGIPTEQLCSGNRIEGLFPILNSSGKPCKQGAVLGLSIQYTPMERMRLYQMGVGSGNECVGVPGTYFPLRKGGRVTLYQDAHVDDGTLPSVHLDGGIQYRHGKCWEDMADAIRQARRLIYITGWSVFHPVRLVRRTNDPTEGTLGELLKVKSQEGVRVLVLVWDDPTSRSLLGFKTQGVMNTSDEETRRFFKHSSVQVLLCPRSGGKGHSFIKKSEVGTIYTHHQKTVIVDAEAAQNRRKIVAFVGGLDLCNGRFDTPKHPLFRTLKTLHKDDFHNPNFVTTADDGPREPWHDLHSKIDGPAAYDVLANFEERWMKASKPRGIGKLKSSSDDSLLRIDRIPDIVGLSEASSANDNDPESWHVQVFRSIDSSSVKGFPKDPKEATGRNLLCGKNILIDMSIHAAYVKAIRSAQHFIYIENQYFLGSSFNWDSNKDLGANNLIPMEIALKIANKIRAREKFAAYIVIPMWPEGAPTSNPIQRILYWQHKTMQMMYQTIYKALVEVGLDSQFEPQDFLNFFCLGTREVPVGTVSVYNSPRKPPQPNANANAAQVQALKSRRFMIYVHSKGMVVDDEFVLIGSANINQRSLEGTRDTEIAMGGYQPHYSWAMKGSRPHGQIFGYRMSLWAEHLGFLEQGFEEPENMECVRRVRQLSELNWRQYAAEEVTEMSGHLLKYPVQVDRTGKVSSLPGCETFPDLGGKIIGSFLALQENLTI

Columns and labels:
[1] = target: Phytophthora infestans RXLR effector SFI5 (BiFC fusion) (Phytophthora infestans) (UniProt D0NMF6); test: split reporter
[2] = target: T1, BIR2 (BiFC fusion) (Arabidopsis thaliana); test: split reporter

| Molecule | binding [1] | binding [2] |
| --- | --- | --- |
| Arabidopsis Calmodulin AtCaM1 (BiFC fusion) (from UniProt P0DH95 1-149) | binds |  |
| B1 |  | no binding |
